Results on one molecule are retold here after US20240150465A1.

Protein sequences, listed by entry. Tags and fused reporters are not part of them. Lines headed by an entry give the natural chain unless they say otherwise; changes in a name come on top.
UniProt Q9NYJ7: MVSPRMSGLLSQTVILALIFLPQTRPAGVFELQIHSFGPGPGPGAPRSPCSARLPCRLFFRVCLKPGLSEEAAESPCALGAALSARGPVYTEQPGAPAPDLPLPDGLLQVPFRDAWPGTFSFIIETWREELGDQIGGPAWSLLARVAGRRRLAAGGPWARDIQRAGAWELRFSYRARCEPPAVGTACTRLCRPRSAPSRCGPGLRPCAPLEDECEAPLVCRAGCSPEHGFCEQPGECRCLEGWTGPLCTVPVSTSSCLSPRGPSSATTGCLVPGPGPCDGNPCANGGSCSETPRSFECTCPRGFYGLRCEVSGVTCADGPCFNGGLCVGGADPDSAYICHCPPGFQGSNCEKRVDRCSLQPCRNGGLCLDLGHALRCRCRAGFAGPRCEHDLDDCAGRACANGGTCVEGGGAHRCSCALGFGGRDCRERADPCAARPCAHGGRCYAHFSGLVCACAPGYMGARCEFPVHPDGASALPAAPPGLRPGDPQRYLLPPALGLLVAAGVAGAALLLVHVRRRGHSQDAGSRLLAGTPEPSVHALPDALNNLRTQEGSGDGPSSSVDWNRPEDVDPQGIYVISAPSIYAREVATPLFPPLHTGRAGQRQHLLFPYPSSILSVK

The test deals with recombinant human DLL3 (human) (UniProt Q9NYJ7). Kind of test: Octet RED384 epitope binning, competitor DL306-SG1.

Results are given in words; binding and its absence hold for the method and conditions named. Some results given as binding are weak or reduced against the parent protein; the word gives no strength.

B1: D30841AE05-SG1 (antibody, human IgG1, kappa, V domains shown)
VH: QVQLKESGPALVKPTQTLTLTCTFSGFSLSSSYDMGWVRQAPGQGLEWMGTIYTGDYSTDYASWAKGRVTITADESTSTAYMELSSLRSEDTAVYYCARNTGYGYFGLWGQGTLVTVSS
VL: DIQLTQSPSFLSASVGDRVTITCQSTESVYGSDWLSWYQQKPGQPPKLLIYQASNLEIGVPSRFSGSGSGTDFTLTINSLEAEDAATYYCQGYYSGYIYAFGGGTKVEIKR
Turning to B1, the binding result was “binds”.
